Reference: article PMC10312976
Where two headings read alike, the source gives them in different places. These are yes or no findings as the source states them, for the method shown. Binding seen in cells or lysates may run through a third protein. Here binding means that the protein was enriched with, or labelled near, the bait; the list need not be complete. Sequences can lack the tags named with a protein. Values belong to the molecule of their own block, whether it stands above or below them.

Amino acid sequences for entries named in this document (tags omitted).
UniProt P26599: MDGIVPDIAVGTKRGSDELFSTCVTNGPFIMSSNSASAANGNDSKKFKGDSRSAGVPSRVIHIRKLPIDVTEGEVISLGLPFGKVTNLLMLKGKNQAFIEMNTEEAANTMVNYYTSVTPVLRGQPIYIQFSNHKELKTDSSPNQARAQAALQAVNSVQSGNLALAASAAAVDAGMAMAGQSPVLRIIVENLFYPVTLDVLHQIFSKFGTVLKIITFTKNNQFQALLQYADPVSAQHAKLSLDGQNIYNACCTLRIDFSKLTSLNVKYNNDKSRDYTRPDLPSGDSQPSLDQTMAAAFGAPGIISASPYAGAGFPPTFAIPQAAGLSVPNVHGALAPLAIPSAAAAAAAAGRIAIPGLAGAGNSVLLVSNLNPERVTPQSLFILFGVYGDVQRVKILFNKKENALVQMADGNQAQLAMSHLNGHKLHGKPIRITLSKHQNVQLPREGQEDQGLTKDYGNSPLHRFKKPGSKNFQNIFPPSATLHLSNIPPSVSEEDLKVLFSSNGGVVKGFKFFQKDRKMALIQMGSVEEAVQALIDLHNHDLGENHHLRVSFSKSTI

Tests used:
Assay in all cases: affinity purification with mass spectrometry; lysate (1 ml of 1 mg/ml) of HEK293T cells transfected with Dbr1-FLAG, anti-FLAG M2 magnetic beads, eluted with 2x SDS-PAGE loading dye; un-transfected HEK293T cells as control; three dishes each
Dbr1-FLAG (human) [1] = target: T1, Dbr1-FLAG (human) (UniProt Q9UK59)
T1 sequence: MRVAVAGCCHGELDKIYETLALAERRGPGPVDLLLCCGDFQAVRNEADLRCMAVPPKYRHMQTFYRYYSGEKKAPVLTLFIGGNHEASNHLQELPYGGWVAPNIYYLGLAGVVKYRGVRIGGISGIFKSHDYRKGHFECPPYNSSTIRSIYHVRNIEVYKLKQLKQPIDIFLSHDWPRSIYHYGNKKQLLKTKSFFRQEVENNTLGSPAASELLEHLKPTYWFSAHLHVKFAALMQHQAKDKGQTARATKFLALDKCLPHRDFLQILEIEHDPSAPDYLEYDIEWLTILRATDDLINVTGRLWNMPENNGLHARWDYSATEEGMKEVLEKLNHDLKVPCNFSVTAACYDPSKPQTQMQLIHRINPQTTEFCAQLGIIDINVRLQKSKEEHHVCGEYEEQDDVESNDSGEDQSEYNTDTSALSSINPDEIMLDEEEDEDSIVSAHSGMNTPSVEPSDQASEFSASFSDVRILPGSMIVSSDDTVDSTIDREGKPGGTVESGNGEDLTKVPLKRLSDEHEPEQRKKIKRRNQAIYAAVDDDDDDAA

[2] = target: T2, Dbr1-FLAG (human), Q9UK59; conditions: remark: other sources report otherwise
T2 chain: T1 sequence

Dbr1-FLAG (human) [3] = target: T1, Dbr1-FLAG (human); remark: listed apart in the source

Molecule: Cwf19L, the human homolog of yeast Drn1
- binding (Dbr1-FLAG (human) [1]): binds

B1: PRP19, Q9UMS4 1-504 (protein)
chain: MSLICSISNEVPEHPCVSPVSNHVYERRLIEKYIAENGTDPINNQPLSEEQLIDIKVAHPIRPKPPSATSIPAILKALQDEWDAVMLHSFTLRQQLQTTRQELSHALYQHDAACRVIARLTKEVTAAREALATLKPQAGLIVPQAVPSSQPSVVGAGEPMDLGELVGMTPEIIQKLQDKATVLTTERKKRGKTVPEELVKPEELSKYRQVASHVGLHSASIPGILALDLCPSDTNKILTGGADKNVVVFDKSSEQILATLKGHTKKVTSVVFHPSQDLVFSASPDATIRIWSVPNASCVQVVRAHESAVTGLSLHATGDYLLSSSDDQYWAFSDIQTGRVLTKVTDETSGCSLTCAQFHPDGLIFGTGTMDSQIKIWDLKERTNVANFPGHSGPITSIAFSENGYYLATAADDSSVKLWDLRKLKNFKTLQLDNNFEVKSLIFDQSGTYLALGGTDVQIYICKQWTEILHFTEHSGLTTGVAFGHHAKFIASTGMDRSLKFYSL
- binding [2]: binds

B3: PLRG1 (protein, UniProt O43660 1-514)
chain: MVEEVQKHSVHTLVFRSLKRTHDMFVADNGKPVPLDEESHKRKMAIKLRNEYGPVLHMPTSKENLKEKGPQNATDSYVHKQYPANQGQEVEYFVAGTHPYPPGPGVALTADTKIQRMPSESAAQSLAVALPLQTKADANRTAPSGSEYRHPGASDRPQPTAMNSIVMETGNTKNSALMAKKAPTMPKPQWHPPWKLYRVISGHLGWVRCIAVEPGNQWFVTGSADRTIKIWDLASGKLKLSLTGHISTVRGVIVSTRSPYLFSCGEDKQVKCWDLEYNKVIRHYHGHLSAVYGLDLHPTIDVLVTCSRDSTARIWDVRTKASVHTLSGHTNAVATVRCQAAEPQIITGSHDTTIRLWDLVAGKTRVTLTNHKKSVRAVVLHPRHYTFASGSPDNIKQWKFPDGSFIQNLSGHNAIINTLTVNSDGVLVSGADNGTMHLWDWRTGYNFQRVHAAVQPGSLDSESGIFACAFDQSESRLLTAEADKTIKVYREDDTATEETHPVSWKPEIIKRKRF
- binding (Dbr1-FLAG (human) [3]): binds

B6: HNRNPL (protein, UniProt P14866 1-589)
chain: MSRRLLPRAEKRRRRLEQRQQPDEQRRRSGAMVKMAAAGGGGGGGRYYGGGSEGGRAPKRLKTDNAGDQHGGGGGGGGGAGAAGGGGGGENYDDPHKTPASPVVHIRGLIDGVVEADLVEALQEFGPISYVVVMPKKRQALVEFEDVLGACNAVNYAADNQIYIAGHPAFVNYSTSQKISRPGDSDDSRSVNSVLLFTILNPIYSITTDVLYTICNPCGPVQRIVIFRKNGVQAMVEFDSVQSAQRAKASLNGADIYSGCCTLKIEYAKPTRLNVFKNDQDTWDYTNPNLSGQGDPGSNPNKRQRQPPLLGDHPAEYGGPHGGYHSHYHDEGYGPPPPHYEGRRMGPPVGGHRRGPSRYGPQYGHPPPPPPPPEYGPHADSPVLMVYGLDQSKMNCDRVFNVFCLYGNVEKVKFMKSKPGAAMVEMADGYAVDRAITHLNNNFMFGQKLNVCVSKQPAIMPGQSYGLEDGSCSYKDFSESRNNRFSTPEQAAKNRIQHPSNVLHFFNAPLEVTEENFFEICDELGVKRPSSVKVFSGKSERSSSGLLEWESKSDALETLGFLNHYQMKNPNGPYPYTLKLCFSTAQHAS
- binding (Dbr1-FLAG (human) [3]): binds

Further lines, results first:

- binding (Dbr1-FLAG (human) [1]): binds
Molecule: PTBP1 (from UniProt P26599 1-557)

- binding (Dbr1-FLAG (human) [3]): binds
B2: XAB2 (protein, UniProt Q9HCS7 1-855)
chain: MVVMARLSRPERPDLVFEEEDLPYEEEIMRNQFSVKCWLRYIEFKQGAPKPRLNQLYERALKLLPCSYKLWYRYLKARRAQVKHRCVTDPAYEDVNNCHERAFVFMHKMPRLWLDYCQFLMDQGRVTHTRRTFDRALRALPITQHSRIWPLYLRFLRSHPLPETAVRGYRRFLKLSPESAEEYIEYLKSSDRLDEAAQRLATVVNDERFVSKAGKSNYQLWHELCDLISQNPDKVQSLNVDAIIRGGLTRFTDQLGKLWCSLADYYIRSGHFEKARDVYEEAIRTVMTVRDFTQVFDSYAQFEESMIAAKMETASELGREEEDDVDLELRLARFEQLISRRPLLLNSVLLRQNPHHVHEWHKRVALHQGRPREIINTYTEAVQTVDPFKATGKPHTLWVAFAKFYEDNGQLDDARVILEKATKVNFKQVDDLASVWCQCGELELRHENYDEALRLLRKATALPARRAEYFDGSEPVQNRVYKSLKVWSMLADLEESLGTFQSTKAVYDRILDLRIATPQIVINYAMFLEEHKYFEESFKAYERGISLFKWPNVSDIWSTYLTKFIARYGGRKLERARDLFEQALDGCPPKYAKTLYLLYAQLEEEWGLARHAMAVYERATRAVEPAQQYDMFNIYIKRAAEIYGVTHTRGIYQKAIEVLSDEHAREMCLRFADMECKLGEIDRARAIYSFCSQICDPRTTGAFWQTWKDFEVRHGNEDTIKEMLRIRRSVQATYNTQVNFMASQMLKVSGSATGTVSDLAPGQSGMDDMKLLEQRAEQLAAEAERDQPLRAQSKILFVRSDASREELAELAQQVNPEEIQLGEDEDEDEMDLEPNEVRLEQQSVPAAVFGSLKED

- binding (Dbr1-FLAG (human) [3]): binds
B4: SRSF7 (protein, UniProt Q16629 1-238)
chain: MSRYGRYGGETKVYVGNLGTGAGKGELERAFSYYGPLRTVWIARNPPGFAFVEFEDPRDAEDAVRGLDGKVICGSRVRVELSTGMPRRSRFDRPPARRPFDPNDRCYECGEKGHYAYDCHRYSRRRRSRSRSRSHSRSRGRRYSRSRSRSRGRRSRSASPRRSRSISLRRSRSASLRRSRSGSIKGSRYFQSPSRSRSRSRSISRPRSSRSKSRSPSPKRSRSPSGSPRRSASPERMD

- binding (Dbr1-FLAG (human) [3]): binds
B5: RBM22 (protein, UniProt Q9NW64 1-420)
chain: MATSLGSNTYNRQNWEDADFPILCQTCLGENPYIRMTKEKYGKECKICARPFTVFRWCPGVRMRFKKTEVCQTCSKLKNVCQTCLLDLEYGLPIQVRDAGLSFKDDMPKSDVNKEYYTQNMEREISNSDGTRPVGMLGKATSTSDMLLKLARTTPYYKRNRPHICSFWVKGECKRGEECPYRHEKPTDPDDPLADQNIKDRYYGINDPVADKLLKRASTMPRLDPPEDKTITTLYVGGLGDTITETDLRNHFYQFGEIRTITVVQRQQCAFIQFATRQAAEVAAEKSFNKLIVNGRRLNVKWGRSQAARGKEKEKDGTTDSGIKLEPVPGLPGALPPPPAAEEEASANYFNLPPSGPPAVVNIALPPPPGIAPPPPPGFGPHMFHPMGPPPPFMRAPGPIHYPSQDPQRMGAHAGKHSSP
